Laboratory results taken from paper PMC9112550, “Optimization of the antimicrobial peptide Bac7 by deep mutational scanning” (BMC Biology, 2022).

System: E. coli TOP10
Test: Deep mutational scanning, epPCR (randomly mutagenized) Bac7_1-23 library, intracellular self-screening with NGS
Format: cell-based
Settings: epPCR library, 601,551 variants; rank 1 = most active; qualitative measure

Sequence | Rank by antimicrobial activity
RRIRPRPTRLPRPRLRPLSFPRP [epPCR library peptide ID 355853] | 5
RRIRPRSPTLPRPRPHPLPFTRP [epPCR library peptide ID 379325] | 1
